Measured values reported in PubChem BioAssay AID1347426 (Functional Genomics Laboratory (NCATS/FGL), 2020).
Hit rate of the full screen: of about 31,000 sequences, about 1,400 (4.5%) were called active.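 The calls were made as follows: active = median seed-adjusted z-score above 1 or below -1; inactive = the rest.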 Some of the results follow.

Assay: Novel Modifiers of Survival Motor Neuron (SMN) Protein: Gene Identification via Genome-wide siRNA Screen;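 also: luminescence tracks full-length SMN protein made from the SMN2 reporter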
Details: HEK293T SMN2-luciferase reporter, siRNA knockdown, 72 h; actives lie on both sides
Procedure, shortened: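 Genome-wide siRNA screen (10418 genes, 3 siRNAs each, 1 pmol per well) by reverse transfection in HEK293T cells stably carrying an SMN2-luciferase reporter; luminescence after 72 hours, normalized to negative-control siRNA, log10-transformed, MAD-scored.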

Sequence	median seed-adjusted z-score
GGACAGAUCUACUACCUGATT against TMED2	inactive: 0.288
CCAGAAGAUUGACAAAUCUTT against ADRB2	inactive: 0.0987
ACAAGGUCCUAGAUAUGGATT against GPR113	inactive: -0.434
GCAAUGCCCUCUAUCAAUATT against IP6K1	inactive: -0.317
ACACUGCGCUGGUUGAAAATT against FGFR1	inactive: -0.562
CCAAGAUUCAAAACACGAATT against B4GALT2	inactive: -0.0367
GCUCAGCUCUUUGAAACAUTT against RAB24	inactive: 0.123
GAAAUAGUCUAGUAAGCUUTT against PDE7A	inactive: 0.861
GAAUUGCUCCACCAGAUAATT against NAALAD2	inactive: -0.00068
GAAAUUGACAUGUUGGAUATT against ANXA4	inactive: -0.0932
GGAUAACAGUGAAGCCGAATT against TNR	inactive: 0.498
CAUUGUAGAUUACUCAGAATT against RHOT1	inactive: -0.189
GCAGCAUUAUAGUCGUAUUTT against PRSS7	inactive: 0.0614
GGUUACAAGUGUAUAACAATT against CD59	inactive: 0.79
CCGUGUACAUUGCUGGUCATT against HNRPLL	inactive: 0
CAAAGAUAAGAUGCUUAUATT against AGPAT5	inactive: 0.571
CUACAUCACUCUUCUGGUATT against KCNV1	inactive: 0.109
CAACCAGACUCGUCUUGAUTT against INHBC	inactive: -0.66
UCAGUUCGAUGAUAUCAGATT against NEK10	inactive: -0.0464
CCGCUUGACUAUGAGCUCATT against TTC7A	inactive: -0.303
AGACCAUUCUAGAGAUCAATT against NAIP	inactive: -0.172
GUACUGAGAAGAAACCGGATT against FBXO11	inactive: 0.733
GCAGUCACAUCUACCAGAATT against ZNF83	inactive: 0.118

Taken from above:
Entry for GGAUAACAGUGAAGCCGAATT against TNR under median seed-adjusted z-score: inactive: 0.498
Entry for GCUCAGCUCUUUGAAACAUTT against RAB24 under median seed-adjusted z-score: inactive: 0.123
Entry for GAAAUAGUCUAGUAAGCUUTT against PDE7A under median seed-adjusted z-score: inactive: 0.861

(next part)

Sequence	median seed-adjusted z-score
GAUAAUCACUGAUCGAACUTT against DAZL	inactive: -0.441
GGACCAUCCGUUCGCCUUATT against APBA1	inactive: 0.305
GGUCAGAGGUUUUGCAUCATT against MSRB2	inactive: 0.373
GCAAGAUUGUGAUACGUUUTT against ZNF615	inactive: 0.0912
CUACGUGACAGACUAUUUATT against INSR	inactive: 0.172
CAACAACUUUAGCUAUGUUTT against SLC16A5	inactive: -0.151
CUGACAUCAUGACAACAAATT against POSTN	inactive: -0.45
CUAAGAAGCAGAAACUAGATT against TSEN34	inactive: 0.918
CACGAAAACUUACCCAGAATT against DGUOK	inactive: 0.0168
CCUUCAGUCAUUUCAGUAATT against ZNF823	inactive: 0.143
GGUUUGACGCAAUCCUGAATT against HMGCL	inactive: 0.046
CAGCGCAUAUGGUAUGGAATT against SLC27A2	inactive: -0.647
GGCUAUUGGUGAAUUUUGATT against DDC	inactive: 0.395
GGACACUGGGCAUAGAUUUTT against ALPP	inactive: 0
GAACUCUUACUAAUGUCUATT against DERA	inactive: -0.197
GGAAAAGCUUUACUCGAAATT against ZNF662	inactive: 0.352
GGAAAUAGGUCUAGUACUATT against PRPF4B	active: -2.29
CGGCUGACAUUAGCUCCCATT against DUSP5	inactive: 0.324
GCAGUAUGUUUCUCAGGUUTT against TLL2	inactive: 0.195
GGUGUUAUCCUAUGAGGUATT against MPP4	inactive: 0.13
GUGCUUUGCUGCAAGAUAATT against LYZ	inactive: -0.0538
GGAGUUCAGUUCUGCCCAATT against NDOR1	inactive: 0.328
AGUACAUCAUUGAUAACAATT against CTSS	inactive: 0.123

Sequence	median seed-adjusted z-score
GAGCUAUAGUAAUUGCUCUTT against MIF4GD	inactive: 0.373
GGAUGAUGAGUCAAACAAATT against ZHX3	inactive: -0.0916
CAGUGUUCGUUCAACCCUATT against ZNF665	active: 1.13
CCUUGUUUCGGACUAUAGATT against CFLAR	inactive: -0.413
CUGAUGAUCAUAAUAGUAATT against MPZL2	inactive: -0.0172
GGACAGUGAGCUUGCAGAATT against TTC7A	inactive: -0.303
CCUCAUUCAUGACCGAAGATT against TAT	inactive: 0.257
GGACUUUGAGGAAACGGAATT against BRD8	inactive: -0.133
GCAUCCUCCUGAUGGUACATT against MPI	inactive: -0.526
CAGUCAAACCGUACAAGAATT against SRRM1	inactive: -0.861
GGUGUUUGAUAUUCGAAUUTT against USP40	inactive: 0.00437
CGUCCAUCCUGUACGGCAATT against ALPI	inactive: 0
GGACCACCACAAUUCGCAUTT against PCDHB5	inactive: 0
CACCAGCGACGGGAUCUUATT against RHOBTB2	inactive: -0.139
CAAUGGAGAUCUGCCUCAATT against PLD3	inactive: 0.066
GUAUGACCAGUGUUUGACATT against GALNT7	inactive: -0.63
GAGUGUUACCUAUAGAACATT against ZNF559	inactive: -0.0208
CAUUAUCUAUUCUAGACAATT against TTC18	active: -1.15
GGCUGUUCACAAUAGAUCUTT against FLT3	inactive: 0.418
GGACUUUGCUGCCUAAAUUTT against PIP5K1A	inactive: 0.0924
CCAUACGAGUGGUGAGAAATT against RASSF2	inactive: -0.649
GGAUGUAUUGUCGCCUGUATT against RENBP	inactive: 0.587
GGUUCUUGGGUGAAGGACATT against CHGB	active: -1.29
